PubChem BioAssay AID1259424 – University of Nebraska Medical Center, 2018
Here is a random part of about 14,000 deposited reagents. 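Higher correlation or smaller distance means closer resemblance to KSR1 loss; control wells, including KSR1 knockdowns, recur on many plates.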 Not all columns of the deposit are shown. Not given: the time to read-out.

Assay: 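Rank knockdowns across the genome by resemblance to the KSR1 depletion profile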 (primary screen)
Cell system: human HCT116 colon cancer cells
Knock-down reagent: siRNA pool against human genes, 50 nM
Measured: 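Log2 levels of six mRNAs (branched-DNA multiplex), adjusted by two reference genes and the non-targeting median, then scored against the average KSR1 knockdown pattern as Pearson r and euclidean distance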
Reading the numbers: mean correlation with KSR1 profile: higher = expression change more like KSR1 knockdown; mean distance from KSR1 profile: higher = expression change less like KSR1 knockdown

Which result is listed for MAP3K6 (mitogen-activated protein kinase kinase kinase 6)?
mean correlation with KSR1 profile: 0.618; mean distance from KSR1 profile: 1.51

For UQCRB (ubiquinol-cytochrome c reductase binding protein), what does the deposit list?
mean correlation with KSR1 profile: 0.117; mean distance from KSR1 profile: 1.51

Which result is listed for GSG1 (germ cell associated 1)?
mean correlation with KSR1 profile: 0.371; mean distance from KSR1 profile: 2.14

For MIER2 (MIER family member 2), how do the results read?
mean correlation with KSR1 profile: -0.675; mean distance from KSR1 profile: 3.53

What did the screen give for LHX9 (LIM homeobox 9)?
mean correlation with KSR1 profile: -0.442; mean distance from KSR1 profile: 1.95

How did the screen score RPL13 (ribosomal protein L13)?
mean correlation with KSR1 profile: 0.427; mean distance from KSR1 profile: 3.46

With MPST (mercaptopyruvate sulfurtransferase), how do the results read?
mean correlation with KSR1 profile: -0.366; mean distance from KSR1 profile: 2.27

With VPS13A (vacuolar protein sorting 13 homolog A), what does the deposit list?
mean correlation with KSR1 profile: 0.19; mean distance from KSR1 profile: 1.72

What is on record for TMEM230 (transmembrane protein 230)?
mean correlation with KSR1 profile: -0.245; mean distance from KSR1 profile: 2.3

For EXTL1 (exostosin like glycosyltransferase 1), how do the results read?
mean correlation with KSR1 profile: -0.065; mean distance from KSR1 profile: 2.66

Which result is listed for EPDR1 (ependymin related 1)?
mean correlation with KSR1 profile: -0.273; mean distance from KSR1 profile: 1.89

For ZNF33B (zinc finger protein 33B), what was measured?
mean correlation with KSR1 profile: 0.342; mean distance from KSR1 profile: 1.42

With YES1 (YES proto-oncogene 1, Src family tyrosine kinase), what does the deposit list?
mean correlation with KSR1 profile: -0.203; mean distance from KSR1 profile: 1.67

What is on record for DNAJC2 (DnaJ heat shock protein family (Hsp40) member C2)?
mean correlation with KSR1 profile: -0.143; mean distance from KSR1 profile: 1.4

For NABP1 (nucleic acid binding protein 1), how do the results read?
mean correlation with KSR1 profile: -0.334; mean distance from KSR1 profile: 3.76

What is on record for NOX3 (NADPH oxidase 3)?
mean correlation with KSR1 profile: -0.372; mean distance from KSR1 profile: 2.37

With COL14A1 (collagen type XIV alpha 1 chain), how do the results read?
mean correlation with KSR1 profile: -0.205; mean distance from KSR1 profile: 2.06

With CDK7 (cyclin dependent kinase 7), what was measured?
mean correlation with KSR1 profile: -0.228; mean distance from KSR1 profile: 3.31

How did the screen score MPHOSPH10 (M-phase phosphoprotein 10)?
mean correlation with KSR1 profile: -0.0103; mean distance from KSR1 profile: 2.02

For LRAT (lecithin retinol acyltransferase), what does the deposit list?
mean correlation with KSR1 profile: -0.337; mean distance from KSR1 profile: 3.23

How did the screen score YIPF3 (Yip1 domain family member 3)?
mean correlation with KSR1 profile: -0.411; mean distance from KSR1 profile: 1.97

Which result is listed for PLD3 (phospholipase D family member 3)?
mean correlation with KSR1 profile: -0.568; mean distance from KSR1 profile: 2.13

What did the screen give for BRIX1 (biogenesis of ribosomes BRX1)?
mean correlation with KSR1 profile: -0.238; mean distance from KSR1 profile: 3.37

With ZNF346 (zinc finger protein 346), what does the deposit list?
mean correlation with KSR1 profile: 0.106; mean distance from KSR1 profile: 1.86

For RPP25 (ribonuclease P/MRP subunit p25), what was measured?
mean correlation with KSR1 profile: 0.189; mean distance from KSR1 profile: 2.15

What did the screen give for MYPN (myopalladin)?
mean correlation with KSR1 profile: 0.153; mean distance from KSR1 profile: 2.35

What did the screen give for FABP7 (fatty acid binding protein 7)?
mean correlation with KSR1 profile: 0.0804; mean distance from KSR1 profile: 1.75

Which result is listed for SPAG5 (sperm associated antigen 5)?
mean correlation with KSR1 profile: 0.0757; mean distance from KSR1 profile: 2.5

Quoted from the listing, 3 entries:
MIER2 (MIER family member 2) | mean correlation with KSR1 profile = -0.675; mean distance from KSR1 profile = 3.53
LHX9 (LIM homeobox 9) | mean correlation with KSR1 profile = -0.442; mean distance from KSR1 profile = 1.95
RPL13 (ribosomal protein L13) | mean correlation with KSR1 profile = 0.427; mean distance from KSR1 profile = 3.46
